Measurements published in PubChem BioAssay AID2685 (National Center for Advancing Translational Sciences (NCATS), 2010).
Hit rate of the full screen: of about 320,000 compounds, about 2,100 (0.66%) were called active. The shares of active, inactive and inconclusive entries below differ from those in the screen. Calls follow the shape of the dose curve; as a rule, active = well fitted inhibition curve with a large enough effect in the signal ratio, with a control signal flat (not every such curve was filed as active); inconclusive = small, poorly fitted or top-dose-only effect, or effect the other way, or a change in a side signal; inactive = flat fitted curve, though single readings scatter; the % refers to the signal ratio. Where the call is inconclusive, the potency comes from a doubtful curve fit.

Experiment: qHTS Assay for Lipid Storage Modulators in Drosophila S3 Cells
Details: BODIPY lipid droplet fluorescence, 18-24 h, cells fed with added oleic acid; lipid storage change, negative = inhibition: at 46.1 µM (top of the series) unless noted
How it was run: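 Laser-scanning cytometry quantifies lipid droplet accumulation (500–530 nm total intensity; droplet/cell object ratio) in oleic acid-fed (400 uM added) Drosophila S3 cells treated with a concentration series. 20 uM Triacsin C defined 100% inhibition.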
% is scaled to controls: 0 for no effect and ±100 for the full control effect; potency is read from the fitted curve at half-maximal effect.

SMILES | lipid storage change, negative = inhibition | Potency
Nc1ccc(C(=O)OCc2ccncc2)cc1[N+](=O)[O-] | inconclusive: 15.1% | –
Cc1ccc2c(c1)N(CC(=O)N1CCOCC1)C(=O)CO2 | inconclusive: -40.1% | –
CC(Sc1nc2ccccc2c(=O)n1CCc1ccc(S(N)(=O)=O)cc1)C(=O)NC(N)=O (centres undefined) | inconclusive: -14.2% | –
Cc1ccc(S(=O)(=O)N(C)C)cc1NC(=O)c1cncc(Br)c1 | – | active: 8.2 µM
CN(c1nc(-c2ccc(Br)cc2)cs1)C1CCS(=O)(=O)C1 (centres undefined) | – | inconclusive: 6.51 µM [rising, single point]
COC(=O)C(C)Oc1ccc(-c2nccc(-c3ccc(F)cc3)n2)cc1 (centres undefined) | inconclusive: 6.2% | –
CCc1noc(C)c1C(=O)OCC(=O)NCc1ccccc1 | – | inconclusive: 29.1 µM [activator, single point]
COc1ccc(C(=O)CCC(=O)N2CCN(c3cccc(Cl)c3)CC2)cc1 | – | inconclusive: 5.8 µM [falling, partial curve]
CCOC(=O)CNC(=O)CSc1nnnn1-c1ccc(C)c(C)c1 | inconclusive: 14.7% | –
COC(=O)c1sc(N)c(C(=O)OC)c1Cn1ncc(Cl)c(Cl)c1=O | – | inconclusive: 29.1 µM [cytotoxic, single point]
S=C(NCCc1ccccc1)N1CCCCC1 | inconclusive: -44.4% [cytotoxic] [at 0.00295 µM] | –
Cc1cccc(CN2CCN(CC(=O)NCc3cccs3)C2=O)c1 | inconclusive: 30.4% | –
CCc1ccccc1NC(=S)N(CCCN1CCOCC1)Cc1ccccn1 | – | inconclusive: 9.2 µM [rising, partial curve, poor fit]
COc1cccc(OC)c1C(=O)Nc1cc2c(cc1N1CCOCC1)n(C)c(=O)n2C | – | inconclusive: 29.1 µM [falling, single point]
O=C(OC1CCOC1=O)c1cncc(Br)c1 (centres undefined) | – | inconclusive: 13 µM [falling, partial curve]
Cc1ccc(C(=O)Nc2cccc(C(=O)O)c2)cc1S(=O)(=O)N1CCCCC1 | inconclusive: -0.1% | –
O=C(Nc1ccc2c(c1)OCO2)c1ccc([N+](=O)[O-])cc1[N+](=O)[O-] | – | inconclusive: 29.1 µM [falling, single point]
NS(=O)(=O)OCC(Cc1ccccc1)N1C(=O)c2ccccc2C1=O (centres undefined) | – | inconclusive: 18.4 µM [activator, single point]
Cc1cc(C(=O)NNc2ccc(F)cc2F)no1 | inconclusive: 6.73% | –
Cc1ccc(C(=O)NCCc2nnc3ccc(N4CCCC4)nn23)cc1 | inconclusive: 1.09% | –

SMILES | lipid storage change, negative = inhibition | Potency
O=c1ccc2cc(S(=O)(=O)N3CCN(c4cc(Cl)ccc4Cl)CC3)ccc2o1 | inconclusive: 3.43% | –
Cc1[nH]c(=O)[nH]c(=O)c1/C=N/NC(=O)CCNC(=O)OC(C)(C)C | – | inconclusive: 29.1 µM [activator, single point]
N=c1c(C(=O)NC2CCCCC2)cc2c(=O)n3ccccc3nc2n1Cc1ccccc1 | – | inconclusive: 6.51 µM [activator, single point]
Cc1ccc(C)c(C(=O)COC(=O)c2ccccc2N2C(=O)C3C4CCC(C4)C3C2=O)c1 (centres undefined) | inconclusive: -33.7% | –
CC(C)CNC(=S)N1CCN(C)CC1 | inconclusive: -9.71% | –
Nc1cccc(-c2nc3ccc(C(=O)c4ccccc4)cc3[nH]2)c1 | – | inconclusive: 14.6 µM [falling, single point]
N#Cc1c2n(c(=S)n(-c3ccccc3)c1=O)CCCCC2 | inconclusive: -21.2% | –
N#CCCn1c(C(C#N)(CCC#N)CCC#N)nc2ccccc21 | – | inconclusive: 0.82 µM [falling, full curve, poor fit]
Cc1ccc(S(=O)(=O)N2CCN(C(=O)CCC(=O)N3CCc4ccccc43)CC2)cc1 | inconclusive: -27% | –
N/C(=N/O)c1nc(N2CCCCC2)nc(N2CCCCC2)n1 | inconclusive: -12% | –
Cc1ccccc1N1C(=O)CC(N2CCC(C(N)=O)CC2)C1=O (centres undefined) | – | inconclusive: 0.0046 µM [falling, full curve, poor fit]
O=C(CSc1nnc(-c2ccncc2)o1)Nc1nncs1 | inconclusive: 82.5% | –
CC(=O)Nc1ccc(OC(=O)c2cc([N+](=O)[O-])ccc2Cl)cc1 | inactive: -0.987% | –
COc1cc(-c2cc(N)n(S(=O)(=O)c3ccccc3)n2)cc(OC)c1OC | – | inconclusive: 29.1 µM [rising, single point]
O=C(CN(C(=O)CCC(=O)Nc1ccccn1)c1ccc(F)cc1)NCCc1ccccc1 | inconclusive: 145% | –
Cc1nonc1NC(=O)c1oc2ccccc2c1C | inconclusive: 39.3% | –
C=CCNc1ncnc2c1[nH]c1ccccc12 | inconclusive: 46.3% | –
COc1cc(CNCc2ccccn2)ccc1OCc1ccc(Cl)c(Cl)c1 | inconclusive: 33.1% | –
CCN1CCCC1CNC(=O)c1ccc2c(c1)N(Cc1cccc(Cl)c1)C(=O)c1ccccc1S2(=O)=O (centres undefined) | – | inconclusive: 29.1 µM [activator, single point]

A section of the results above, as a working copy:
SMILES | lipid storage change, negative = inhibition | Potency
O=C(CSc1nnc(-c2ccncc2)o1)Nc1nncs1 | inconclusive: 82.5% | –
CC(=O)Nc1ccc(OC(=O)c2cc([N+](=O)[O-])ccc2Cl)cc1 | inactive: -0.987% | –
